Assay results as given in patent publication US20120039904A1 (Kyowa Kirin, published 2012).
Results are given in words; binding and its absence hold for the method and conditions named. Some results given as binding are weak or reduced against the parent protein; the word gives no strength. Where a sequence is shown, tags or fusion partners need not be part of it.

How the values were obtained:
[1] = target: T1, mouse EL1 type ASCT2-myc/His (mouse/human chimeric ASCT2), expressed on CHO cells (human/mouse chimera) (UniProt Q15758); test: flow cytometry on mEL1/CHO cells; '+' = presence of reactivity
T1 sequence: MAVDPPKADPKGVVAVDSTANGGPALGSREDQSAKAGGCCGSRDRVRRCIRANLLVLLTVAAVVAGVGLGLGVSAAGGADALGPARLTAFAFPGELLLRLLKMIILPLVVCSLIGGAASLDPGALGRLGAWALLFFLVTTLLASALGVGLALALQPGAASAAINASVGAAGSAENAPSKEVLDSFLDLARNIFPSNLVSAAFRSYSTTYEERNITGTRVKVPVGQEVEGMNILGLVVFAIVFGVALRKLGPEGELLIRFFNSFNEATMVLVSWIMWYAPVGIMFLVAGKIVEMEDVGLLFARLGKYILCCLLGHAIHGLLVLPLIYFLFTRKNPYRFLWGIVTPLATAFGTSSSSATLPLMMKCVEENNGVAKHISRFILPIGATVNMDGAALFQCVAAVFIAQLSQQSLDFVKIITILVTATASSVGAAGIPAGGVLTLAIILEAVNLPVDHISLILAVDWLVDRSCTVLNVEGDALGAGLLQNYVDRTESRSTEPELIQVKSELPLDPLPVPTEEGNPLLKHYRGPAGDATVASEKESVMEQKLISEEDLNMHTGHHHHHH

[2] = target: T2, mouse EL3 type ASCT2-myc/His (mouse/human chimeric ASCT2), expressed on CHO cells (human/mouse chimera) (UniProt Q15758); test: flow cytometry on mEL3/CHO cells; '+' = presence of reactivity
T2 sequence: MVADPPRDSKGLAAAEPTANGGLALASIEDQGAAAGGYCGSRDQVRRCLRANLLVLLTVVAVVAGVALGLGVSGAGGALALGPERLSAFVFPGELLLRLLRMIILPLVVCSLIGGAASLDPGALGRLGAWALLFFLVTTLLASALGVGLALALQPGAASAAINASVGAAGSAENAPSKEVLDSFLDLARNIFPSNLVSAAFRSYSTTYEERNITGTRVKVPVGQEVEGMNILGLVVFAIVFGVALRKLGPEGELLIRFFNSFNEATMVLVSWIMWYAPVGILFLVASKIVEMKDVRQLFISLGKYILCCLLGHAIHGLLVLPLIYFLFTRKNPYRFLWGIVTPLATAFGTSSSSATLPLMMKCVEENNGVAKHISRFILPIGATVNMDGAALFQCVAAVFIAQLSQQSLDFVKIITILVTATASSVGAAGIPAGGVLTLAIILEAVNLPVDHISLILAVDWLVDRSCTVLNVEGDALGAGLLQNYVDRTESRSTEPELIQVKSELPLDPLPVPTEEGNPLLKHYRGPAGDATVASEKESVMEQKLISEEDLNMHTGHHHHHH

B1: anti-ASCT2 monoclonal antibody KM4008 (antibody, V domains shown)
VH: QIQLVQSGPELKKPGETVKISCKASGYTFTTFGMSWVKQVPGKGLKWMGWIHTYAGVPIYGDDFKGRFAFSLETSASTAYLQINNVKNEDTATYFCARRSDNYRYFFDYWGQGTTLTVSS
VL: DIQMTQTTSSLSASLGDRVTISCRASQDIRNYLNWYQRKPHGTVKLLIYYTSRLHSGVPSRFSGSGSGTDYSLTISNLEQEDIATYFCQQGHTLPPTFGGGTKLEIKR
notes: mouse IgG3, kappa (amplified with a mouse Ig kappa primer)
- binding [1]: binds
- binding [2]: binds

B2: anti-ASCT2 monoclonal antibody KM4012 (antibody, mouse IgG2b, V domains shown)
VH: QIQLVQSGPELKKPGETVKISCKASGYTFTTYGMSWVKQTPGKGLKWMGWIHTYSGVPIYGDDSKGRFAFSLETSGSIAYLQINNVKNEDTATYFCARRSDGYRYFFDYWGQGTTLTVSS
VL: DIQMTQITSSLSASLGDRVTISCRASQDIRNYLNWYQQKPDGTVKLLIYYTSRLHSGVPSRFSGSGSGTDYSLTISNLEQEDIATYFCQQGNTLPPTFGGGTKLEIKR
notes: mouse IgG2b, kappa
- binding [1]: binds
- binding [2]: binds
